# Assay results as given in the supplement of paper PMC8728848.
# This is one part of the list.
# B1: LlpA (Burkholderia cenocepacia) (protein)
# chain: MGSSHHHHHHSSGLVPRGSHKILGSNETLSAGNVVYSDNGQYHLAMQTDGNLVVYGPTGAVWQSQTSGSGGNRAVMQGDGNLVIYRADNTAAWSSKTAHPGAFLAVQDDGNVVIYWPRPAWASNTSDPATQQSAESKYLASGSTMSAGQTVTVAQYMLVFQADGNLVLYKNGGNPIWSTGTQGKGATYAVMQSDGNFVIYAGSTALWSTKTNGANGAQLVLQSDGNLVIYAPTAAWSTKFGLVTAPTSTSTSNNGPGSGICVGVCPPHPLNGNPFSPVGVGTTGLGFPTPGYPGAAF
# What was measured:
# Experiment in all cases: glycan array binding signal (z-score within array); higher = stronger binding
# Conditions in all cases: glycan notation: IUPAC condensed, linker removed
# [1] = target: Gal(b1-3)GlcNAc(b1-6)GalNAc
# Method in brief: (§1)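 Glycan array binding is given as a within-array Z-score, which can be read as non-binding when negative. The arrays, 3228 of them, came from the Consortium for Functional Glycomics database and were retained only where the protein sequence was available. Z-scores were averaged across arrays of the same protein sequence at different concentrations or buffers and across linkers.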
# [2] = target: Gal(b1-3)GlcNAc(b1-6)[Gal(b1-3)]GalNAc
# Method in brief: as §1
# Gal(b1-3)GlcNAc6S = target: Gal(b1-3)GlcNAc6S
# Method in brief: as §1
# [3] = target: Gal(b1-3)[Fuc(a1-4)]GlcNAc
# Method in brief: as §1
# [4] = target: Gal(b1-3)[Fuc(a1-4)]GlcNAc(b1-2)Man
# Method in brief: as §1
# [5] = target: Gal(b1-3)[Fuc(a1-4)]GlcNAc(b1-2)Man(a1-3)[Gal(b1-3)[Fuc(a1-4)]GlcNAc(b1-2)Man(a1-6)]Man(b1-4)GlcNAc(b1-4)[Fuc(a1-6)]GlcNAc
# Method in brief: as §1
# [6] = target: Gal(b1-3)[Fuc(a1-4)]GlcNAc(b1-3)Gal(b1-3)[Fuc(a1-4)]GlcNAc
# Method in brief: as §1
# [7] = target: Gal(b1-3)[Fuc(a1-4)]GlcNAc(b1-3)Gal(b1-4)[Fuc(a1-3)]GlcNAc
# Method in brief: as §1
# [8] = target: Gal(b1-3)[Fuc(a1-4)]GlcNAc(b1-6)GalNAc
# Method in brief: as §1
# [9] = target: Gal(b1-3)[GlcNAc(b1-6)]GalNAc
# Method in brief: as §1
# [10] = target: Gal(b1-3)[Neu5Ac(a2-6)]GalNAc
# Method in brief: as §1
# [11] = target: Gal(b1-3)[Neu5Ac(a2-6)]GlcNAc(b1-4)Gal(b1-4)Glc
# Method in brief: as §1
# [12] = target: Gal(b1-3)[Neu5Ac(b2-6)]GalNAc
# Method in brief: as §1
# Gal(b1-4)Gal = target: Gal(b1-4)Gal
# Method in brief: as §1
# [13] = target: Gal(b1-4)GalNAc(a1-3)[Fuc(a1-2)]Gal(b1-4)GlcNAc
# Method in brief: as §1
# [14] = target: Gal(b1-4)GalNAc(b1-3)[Fuc(a1-2)]Gal(b1-4)GlcNAc
# Method in brief: as §1
# Gal(b1-4)Glc = target: Gal(b1-4)Glc
# Method in brief: as §1
# Gal(b1-4)Glc6S = target: Gal(b1-4)Glc6S
# Method in brief: as §1
# Gal(b1-4)GlcNAc = target: Gal(b1-4)GlcNAc
# Method in brief: as §1
# [15] = target: Gal(b1-4)GlcNAc(a1-6)Gal(b1-4)GlcNAc
# Method in brief: as §1
# Gal(b1-4)GlcNAc(b1-2)Man = target: Gal(b1-4)GlcNAc(b1-2)Man
# Method in brief: as §1
# [16] = target: Gal(b1-4)GlcNAc(b1-2)Man(a1-3)Man(b1-4)GlcNAc(b1-4)GlcNAc
# Method in brief: as §1
# [17] = target: Gal(b1-4)GlcNAc(b1-2)Man(a1-3)[Gal(b1-4)GlcNAc(b1-2)Man(a1-6)]Man(b1-4)GlcNAc(b1-4)GlcNAc
# Method in brief: as §1
# [18] = target: Gal(b1-4)GlcNAc(b1-2)Man(a1-3)[Gal(b1-4)GlcNAc(b1-2)Man(a1-6)]Man(b1-4)GlcNAc(b1-4)[Fuc(a1-6)]GlcNAc
# Method in brief: as §1
# [19] = target: Gal(b1-4)GlcNAc(b1-2)Man(a1-3)[Gal(b1-4)GlcNAc(b1-2)Man(a1-6)][Gal(b1-4)GlcNAc(b1-4)]Man(b1-4)GlcNAc(b1-4)[Fuc(a1-6)]GlcNAc
# Method in brief: as §1
# [20] = target: Gal(b1-4)GlcNAc(b1-2)Man(a1-3)[Gal(b1-4)GlcNAc(b1-2)Man(a1-6)][GlcNAc(b1-4)]Man(b1-4)GlcNAc(b1-4)[Fuc(a1-6)]GlcNAc
# Method in brief: as §1
# [21] = target: Gal(b1-4)GlcNAc(b1-2)Man(a1-3)[GlcNAc(b1-2)Man(a1-6)]Man(b1-4)GlcNAc(b1-4)GlcNAc
# Method in brief: as §1
# [22] = target: Gal(b1-4)GlcNAc(b1-2)Man(a1-3)[GlcNAc(b1-4)][Gal(b1-4)GlcNAc(b1-2)Man(a1-6)]Man(b1-4)GlcNAc(b1-4)GlcNAc
# Method in brief: as §1
# [23] = target: Gal(b1-4)GlcNAc(b1-2)Man(a1-3)[Man(a1-6)]Man(b1-4)GlcNAc(b1-4)GlcNAc
# Method in brief: as §1
# [24] = target: Gal(b1-4)GlcNAc(b1-2)Man(a1-6)Man(b1-4)GlcNAc(b1-4)GlcNAc
# Method in brief: as §1
# [25] = target: Gal(b1-4)GlcNAc(b1-2)Man(a1-6)[GlcNAc(b1-2)Man(a1-3)]Man(b1-4)GlcNAc(b1-4)GlcNAc
# Method in brief: as §1
# [26] = target: Gal(b1-4)GlcNAc(b1-2)Man(a1-6)[Man(a1-3)]Man(b1-4)GlcNAc(b1-4)GlcNAc
# Method in brief: as §1
# [27] = target: Gal(b1-4)GlcNAc(b1-2)[Gal(b1-4)GlcNAc(b1-4)]Man(a1-3)[Gal(b1-4)GlcNAc(b1-2)Man(a1-6)]Man(b1-4)GlcNAc(b1-4)GlcNAc
# Method in brief: as §1
# [28] = target: Gal(b1-4)GlcNAc(b1-2)[Gal(b1-4)GlcNAc(b1-4)]Man(a1-3)[Gal(b1-4)GlcNAc(b1-2)[Gal(b1-4)GlcNAc(b1-6)]Man(a1-6)]Man(b1-4)GlcNAc(b1-4)GlcNAc
# Method in brief: as §1
# [29] = target: Gal(b1-4)GlcNAc(b1-2)[Gal(b1-4)GlcNAc(b1-4)]Man(a1-3)[GlcNAc(b1-4)][Gal(b1-4)GlcNAc(b1-2)Man(a1-6)]Man(b1-4)GlcNAc(b1-4)GlcNAc
# Method in brief: as §1
# [30] = target: Gal(b1-4)GlcNAc(b1-2)[Gal(b1-4)GlcNAc(b1-4)]Man(a1-3)[GlcNAc(b1-4)][Gal(b1-4)GlcNAc(b1-2)[Gal(b1-4)GlcNAc(b1-6)]Man(a1-6)]Man(b1-4)GlcNAc(b1-4)GlcNAc
# Method in brief: as §1
# [31] = target: Gal(b1-4)GlcNAc(b1-2)[Gal(b1-4)GlcNAc(b1-6)]Man(a1-6)[Gal(b1-4)GlcNAc(b1-2)Man(a1-3)]Man(b1-4)GlcNAc(b1-4)GlcNAc
# Method in brief: as §1
# [32] = target: Gal(b1-4)GlcNAc(b1-2)[Gal(b1-4)GlcNAc(b1-6)]Man(a1-6)[Gal(b1-4)GlcNAc(b1-2)Man(a1-3)]Man(b1-4)GlcNAc(b1-4)[Fuc(a1-6)]GlcNAc
# Method in brief: as §1
# [33] = target: Gal(b1-4)GlcNAc(b1-2)[Gal(b1-4)GlcNAc(b1-6)]Man(a1-6)[GlcNAc(b1-4)][Gal(b1-4)GlcNAc(b1-2)Man(a1-3)]Man(b1-4)GlcNAc(b1-4)GlcNAc
# Method in brief: as §1
# [34] = target: Gal(b1-4)GlcNAc(b1-2)[Gal(b1-4)GlcNAc(b1-6)]Man(a1-6)[GlcNAc(b1-4)][Gal(b1-4)GlcNAc(b1-2)[Gal(b1-4)GlcNAc(b1-4)]Man(a1-3)]Man(b1-4)GlcNAc(b1-4)[Fuc(a1-6)]GlcNAc
# Method in brief: as §1
# [35] = target: Gal(b1-4)GlcNAc(b1-3)Gal(b1-3)GalNAc
# Method in brief: as §1
# [36] = target: Gal(b1-4)GlcNAc(b1-3)Gal(b1-3)GlcNAc
# Method in brief: as §1
# [37] = target: Gal(b1-4)GlcNAc(b1-3)Gal(b1-4)Glc
# Method in brief: as §1
# [38] = target: Gal(b1-4)GlcNAc(b1-3)Gal(b1-4)GlcNAc
# Method in brief: as §1
# [39] = target: Gal(b1-4)GlcNAc(b1-3)Gal(b1-4)GlcNAc(b1-2)Man(a1-3)[Gal(b1-4)GlcNAc(b1-3)Gal(b1-4)GlcNAc(b1-2)Man(a1-6)]Man(b1-4)GlcNAc(b1-4)GlcNAc
# Method in brief: as §1
binder,measurement,setting,value
B1,glycan array binding signal (z-score),[1],-0.529
same,glycan array binding signal (z-score),[2],-1.18
same,glycan array binding signal (z-score),Gal(b1-3)GlcNAc6S,-0.484
same,glycan array binding signal (z-score),[3],-0.599
same,glycan array binding signal (z-score),[4],0.67
same,glycan array binding signal (z-score),[5],1.25
same,glycan array binding signal (z-score),[6],-0.229
same,glycan array binding signal (z-score),[7],0.651
same,glycan array binding signal (z-score),[8],-0.203
same,glycan array binding signal (z-score),[9],0.32
same,glycan array binding signal (z-score),[10],-1.02
same,glycan array binding signal (z-score),[11],0.368
same,glycan array binding signal (z-score),[12],-0.687
same,glycan array binding signal (z-score),Gal(b1-4)Gal,-0.293
same,glycan array binding signal (z-score),[13],-0.49
same,glycan array binding signal (z-score),[14],-0.789
same,glycan array binding signal (z-score),Gal(b1-4)Glc,0.078
same,glycan array binding signal (z-score),Gal(b1-4)Glc6S,-0.132
same,glycan array binding signal (z-score),Gal(b1-4)GlcNAc,-1.08
same,glycan array binding signal (z-score),[15],-0.352
same,glycan array binding signal (z-score),Gal(b1-4)GlcNAc(b1-2)Man,1.06
same,glycan array binding signal (z-score),[16],1.84
same,glycan array binding signal (z-score),[17],-0.66
same,glycan array binding signal (z-score),[18],0.328
same,glycan array binding signal (z-score),[19],-1.76
same,glycan array binding signal (z-score),[20],-1.76
same,glycan array binding signal (z-score),[21],-0.43
same,glycan array binding signal (z-score),[22],-0.313
same,glycan array binding signal (z-score),[23],-0.544
same,glycan array binding signal (z-score),[24],1.36
same,glycan array binding signal (z-score),[25],-0.327
same,glycan array binding signal (z-score),[26],0.084
same,glycan array binding signal (z-score),[27],-0.37
same,glycan array binding signal (z-score),[28],-0.85
same,glycan array binding signal (z-score),[29],-0.887
same,glycan array binding signal (z-score),[30],0.349
same,glycan array binding signal (z-score),[31],-0.242
same,glycan array binding signal (z-score),[32],0.096
same,glycan array binding signal (z-score),[33],-0.912
same,glycan array binding signal (z-score),[34],-0.834
same,glycan array binding signal (z-score),[35],-0.547
same,glycan array binding signal (z-score),[36],-0.242
same,glycan array binding signal (z-score),[37],-0.506
same,glycan array binding signal (z-score),[38],-0.792
same,glycan array binding signal (z-score),[39],1.04

# Reprinted at random: three records from the list.
binder,measurement,setting,value
B1,glycan array binding signal (z-score),[20],-1.76
same,glycan array binding signal (z-score),[35],-0.547
same,glycan array binding signal (z-score),[29],-0.887
